Results reported in publication PMC12599920.
Positions count from the first letter of the chain named. Results are given in words; binding and its absence hold for the method and conditions named. A result given as binding can be weak or reduced; the word gives no strength. For some of these results: Tags and fused reporters may be left off the sequences shown.

Tests used:
Test in all cases: pull-down; MBP-fused aldolase protein held on amylose agarose; soluble Mud^CC prey added at varying concentrations for 2 h at 4°C in 20 mM Tris pH 8, 100 mM NaCl, 1 mM DTT, 0.2% Triton-X100; four washes; Coomassie-stained SDS-PAGE, band intensities fitted to a one-site binding isotherm; both purified
[1] = molecular target: T1, MBP:Hts (110-310), CThelix truncation of the Hts aldolase domain (Drosophila melanogaster) (UniProt Q02645)
T1 sequence: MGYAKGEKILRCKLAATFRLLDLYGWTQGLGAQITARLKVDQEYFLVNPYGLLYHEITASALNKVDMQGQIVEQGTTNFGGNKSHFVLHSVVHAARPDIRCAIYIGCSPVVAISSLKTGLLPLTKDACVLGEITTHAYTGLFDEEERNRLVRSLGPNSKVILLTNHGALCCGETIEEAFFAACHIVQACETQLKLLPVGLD

[2] = molecular target: T2, MBP:Hts (110-401), full-length Hts aldolase domain (Drosophila melanogaster) (UniProt Q02645)
T2 sequence: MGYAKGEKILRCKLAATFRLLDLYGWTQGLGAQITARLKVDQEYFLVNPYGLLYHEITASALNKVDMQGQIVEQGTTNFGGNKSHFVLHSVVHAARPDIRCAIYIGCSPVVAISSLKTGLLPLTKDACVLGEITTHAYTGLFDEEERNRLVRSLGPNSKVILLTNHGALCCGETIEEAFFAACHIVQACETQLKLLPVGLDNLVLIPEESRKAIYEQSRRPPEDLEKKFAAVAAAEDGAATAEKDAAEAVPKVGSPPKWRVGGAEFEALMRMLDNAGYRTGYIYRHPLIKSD

[3] = molecular target: T3, Hts310_HTaa (H164A/T167A) (Drosophila melanogaster) (UniProt Q02645)
T3 sequence: T1 sequence with H55A, T58A

[4] = molecular target: T4, MBP:Hts (110-401)-ΔCTloop (Drosophila melanogaster) (UniProt Q02645)
T4 sequence: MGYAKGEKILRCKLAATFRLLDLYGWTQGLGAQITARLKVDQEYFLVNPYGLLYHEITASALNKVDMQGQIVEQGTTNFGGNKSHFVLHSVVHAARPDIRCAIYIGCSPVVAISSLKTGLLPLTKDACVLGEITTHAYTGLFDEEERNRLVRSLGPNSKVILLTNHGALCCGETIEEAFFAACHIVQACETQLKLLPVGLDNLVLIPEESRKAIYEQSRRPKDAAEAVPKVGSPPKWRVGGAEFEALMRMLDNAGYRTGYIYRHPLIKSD

Measured: binding

Mushroom body defect coiled-coil domain (Mud^CC) (Drosophila melanogaster) (domain or fragment)
binds: [1] | [2] | [3] | [4]
